Experimental data as given in PMC10680230.

Chains of the proteins cited; added tags and fusions are not shown.
UniProt P62258: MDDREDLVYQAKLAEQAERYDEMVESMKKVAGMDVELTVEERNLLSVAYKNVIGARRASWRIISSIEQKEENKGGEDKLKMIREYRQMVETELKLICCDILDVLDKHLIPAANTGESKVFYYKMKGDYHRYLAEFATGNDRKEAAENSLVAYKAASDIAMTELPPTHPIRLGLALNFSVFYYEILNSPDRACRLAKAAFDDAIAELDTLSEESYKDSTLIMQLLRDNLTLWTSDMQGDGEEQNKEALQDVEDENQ

Target: T1, Thyroid hormone receptor-interacting protein 13 (TRIP13) (human (endogenous in H929)) (UniProt Q15645)
T1 sequence: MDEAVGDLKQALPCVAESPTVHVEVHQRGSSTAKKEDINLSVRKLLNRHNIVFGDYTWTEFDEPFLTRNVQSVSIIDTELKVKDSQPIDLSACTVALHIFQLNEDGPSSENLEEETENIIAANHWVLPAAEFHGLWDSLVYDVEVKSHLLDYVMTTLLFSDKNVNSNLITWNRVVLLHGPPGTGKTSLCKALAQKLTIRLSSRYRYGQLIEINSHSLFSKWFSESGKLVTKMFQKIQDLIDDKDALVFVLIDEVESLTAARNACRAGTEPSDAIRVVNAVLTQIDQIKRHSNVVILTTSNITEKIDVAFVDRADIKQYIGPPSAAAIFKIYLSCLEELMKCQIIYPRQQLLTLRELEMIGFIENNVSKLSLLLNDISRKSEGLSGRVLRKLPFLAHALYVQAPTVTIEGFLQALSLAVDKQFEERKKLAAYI
Experiment: affinity purification with mass spectrometry; liquid chromatography-tandem mass spectrometry to identify potential TRIP13-interacting proteins; cells, capture of TRIP13 and conditions not told

binding	Substance
binds	YWHAE (from UniProt P62258 1-255)
no binding	ERK
no binding	RAF
no binding	MEK

These are yes or no findings as the source states them, for the method shown. In cells and extracts the contact can be indirect. These calls come from enrichment with a bait or labelling near it, and not all partners need be listed. No binding means not detected with the bait.
